Experimental data as given in PubChem BioAssay AID248 (DTP/NCI, 2004).
The list is a part of this screen's results and no random one: it is rich in T/C values a quarter to a half above the control, in often repeated tests (any T/C) and in doses without a T/C. Other doses and runs of a compound stand elsewhere. T/C: endpoint of the treated group in % of that of the vehicle group. Some doses have a count of surviving animals in place of a T/C: the source holds a T/C of zero for them, seemingly a mark for toxic or unscored doses. Some survivor counts are full or nearly so, which does not show that the dose was tolerated: the source hardly ever lists a survival T/C far under the control, and the zero likely stands for such cases as well. Counts of survivors are from the toxicity check (mostly the fifth day) where no day follows; animals may have died later. Schedules are NCI's codes, taken here to give the interval after Q, in days (D) or hours (H), and the number of doses after X. Some doses were run more than once; the results are listed from low to high. For survival time, the PubChem record calls one and a half times the control and up active, and a quarter to a half above the control has no call in these data; cut-offs in other NCI protocols can differ. Marks such as (2×) stand for listed records that agree. Some T/C values carry the count of animals alive at the toxicity check (mostly the fifth day); without a count, all were alive then.

Tested on: L1210 leukemia ip in BDF1 mice, survival T/C
Assay: NCI In Vivo Anticancer Drug Screen. Data for tumor model L1210 Leukemia (intraperitoneal) in B6D2F1 (BDF1) mice
Details: higher T/C = longer survival
[1] = T/C endpoint: median survival time, dose: 8.0 mg/kg/injection, schedule: Q01DX009 (ip), vehicle: water

## CC[n+]1ccc(Nc2ccc(NC(=O)c3ccc(Nc4cc[n+](CC)c5ccc(N)cc45)cc3)cc2)cc1
T/C endpoint: mean survival time, dose: 0.05 mg/kg/injection, schedule: Q01DX009 (ip), vehicle: water
  T/C: 140 % of control
T/C endpoint: mean survival time, dose: 0.37 mg/kg/injection, schedule: Q01DX009 (ip), vehicle: saline
  T/C: 127 and 141 % of control
T/C endpoint: mean survival time, dose: 0.5 mg/kg/injection, schedule: Q01DX009 (ip), vehicle: water
  T/C: 129 % of control
T/C endpoint: mean survival time, dose: 0.5 mg/kg/injection, schedule: Q03HX016 (ip), vehicle: water
  T/C: 147 % of control
T/C endpoint: mean survival time, dose: 0.5 mg/kg/injection, schedule: Q03HX024 (ip), vehicle: water
  T/C: 136 % of control
T/C endpoint: mean survival time, dose: 0.5 mg/kg/injection, schedule: Q03HX024 (sc), vehicle: water
  T/C: 129 % of control [7 of 8 alive]
T/C endpoint: mean survival time, dose: 1.0 mg/kg/injection, schedule: Q01DX005 (iv), vehicle: water
  T/C: 126 % of control
T/C endpoint: mean survival time, dose: 1.0 mg/kg/injection, schedule: Q01DX009 (ip), vehicle: water
  T/C: 146 % of control
T/C endpoint: mean survival time, dose: 2.0 mg/kg/injection, schedule: Q01DX005 (iv), vehicle: water
  survivor count: 0 of 10
T/C endpoint: mean survival time, dose: 2.0 mg/kg/injection, schedule: Q01DX009 (ip), vehicle: water, evaluated on day 30
  T/C: 218 and 227 % of control
T/C endpoint: mean survival time, dose: 2.0 mg/kg/injection, schedule: Q01DX009 (ip), vehicle: water, evaluated on day 60
  T/C: 183 and 267 % of control
T/C endpoint: mean survival time, dose: 4.0 mg/kg/injection, schedule: Q01DX005 (iv), vehicle: water
  survivor count: 0 of 8
T/C endpoint: mean survival time, dose: 4.0 mg/kg/injection, schedule: Q01DX009 (ip), vehicle: water, evaluated on day 30
  T/C: 155 and 283 % of control
T/C endpoint: mean survival time, dose: 4.0 mg/kg/injection, schedule: Q01DX009 (ip), vehicle: water, evaluated on day 60
  T/C: 221 and 316 % of control
T/C endpoint: mean survival time, dose: 4.0 mg/kg/injection, schedule: Q03HX008 (ip), vehicle: water
  T/C: 130 % of control
T/C endpoint: mean survival time, dose: 4.0 mg/kg/injection, schedule: Q03HX024 (sc), vehicle: water
  T/C: 135 % of control
T/C endpoint: mean survival time, dose: 4.0 mg/kg/injection, schedule: Q04DX003 (ip), vehicle: water, evaluated on day 30
  T/C: 140 % of control
T/C endpoint: mean survival time, dose: 4.0 mg/kg/injection, schedule: Q04DX003 (ip), vehicle: water, evaluated on day 60
  T/C: 145 % of control
T/C endpoint: mean survival time, dose: 5.0 mg/kg/injection, schedule: Q01DX001 (ip), vehicle: saline
  T/C: 127 % of control
T/C endpoint: mean survival time, dose: 5.4 mg/kg/injection, schedule: Q01DX009 (ip), vehicle: saline
  T/C: 147 % of control
T/C endpoint: mean survival time, dose: 8.0 mg/kg/injection, schedule: Q01DX001 (ip), vehicle: saline
  T/C: 133 % of control
T/C endpoint: mean survival time, dose: 8.0 mg/kg/injection, schedule: Q01DX001 (ip), vehicle: water
  T/C: 132 % of control
T/C endpoint: mean survival time, dose: 8.0 mg/kg/injection, schedule: Q01DX009 (ip), vehicle: water, evaluated on day 30
  T/C: 145 % of control
T/C endpoint: mean survival time, dose: 8.0 mg/kg/injection, schedule: Q01DX009 (ip), vehicle: water, evaluated on day 60
  T/C: 128 % of control
T/C endpoint: mean survival time, dose: 8.0 mg/kg/injection, schedule: Q03HX008 (ip), vehicle: water
  T/C: 138 % of control
T/C endpoint: mean survival time, dose: 8.0 mg/kg/injection, schedule: Q08DX002 (ip), vehicle: water
  T/C: 143 % of control
T/C endpoint: mean survival time, dose: 8.0 mg/kg/injection, schedule: Q08DX002 (oral), vehicle: water
  T/C: 126 % of control
T/C endpoint: mean survival time, dose: 12.0 mg/kg/injection, schedule: Q01DX001 (ip), vehicle: saline
  T/C: 148 % of control
T/C endpoint: mean survival time, dose: 12.5 mg/kg/injection, schedule: Q01DX001 (ip), vehicle: saline
  T/C: 129 % of control
T/C endpoint: mean survival time, dose: 16.0 mg/kg/injection, schedule: Q01DX001 (ip), vehicle: water
  T/C: 147 % of control
T/C endpoint: mean survival time, dose: 16.0 mg/kg/injection, schedule: Q03HX008 (ip), vehicle: water
  T/C: 142 % of control [9 of 10 alive]
T/C endpoint: mean survival time, dose: 16.0 mg/kg/injection, schedule: Q08DX002 (oral), vehicle: water
  T/C: 128 % of control [9 of 10 alive]
T/C endpoint: mean survival time, dose: 32.0 mg/kg/injection, schedule: Q01DX001 (ip), vehicle: water
  survivor count: 5 of 10
T/C endpoint: mean survival time, dose: 32.0 mg/kg/injection, schedule: Q04DX003 (ip), vehicle: water
  survivor count: 0 of 10
T/C endpoint: mean survival time, dose: 32.0 mg/kg/injection, schedule: Q08DX002 (ip), vehicle: water
  survivor count: 2 of 10
T/C endpoint: mean survival time, dose: 32.0 mg/kg/injection, schedule: Q08DX002 (oral), vehicle: water
  survivor count: 6 of 10
T/C endpoint: mean survival time, dose: 50.0 mg/kg/injection, schedule: Q01DX001 (ip), vehicle: saline
  survivor count: 0 of 6
T/C endpoint: median survival time, dose: 0.25 mg/kg/injection, schedule: Q01DX009 (ip), vehicle: water, evaluated on day 25
  T/C: 120 % of control (2×)
T/C endpoint: median survival time, dose: 0.25 mg/kg/injection, schedule: Q01DX009 (ip), vehicle: water, evaluated on day 33
  T/C: 111 and 116 % of control [9 of 10 alive]
T/C endpoint: median survival time, dose: 0.5 mg/kg/injection, schedule: Q01DX009 (ip), vehicle: water, evaluated on day 25
  T/C: 120 and 130 % of control
T/C endpoint: median survival time, dose: 0.5 mg/kg/injection, schedule: Q01DX009 (ip), vehicle: water, evaluated on day 33
  T/C: 111 and 138 % of control
T/C endpoint: median survival time, dose: 0.8 mg/kg/injection, schedule: Q03HX024 (ip), vehicle: water, evaluated on day 7
  T/C: 138 % of control
T/C endpoint: median survival time, dose: 0.8 mg/kg/injection, schedule: Q03HX024 (ip), vehicle: water, evaluated on day 32
  T/C: 135 % of control
T/C endpoint: median survival time, dose: 1.0 mg/kg/injection, schedule: Q01DX009 (ip), vehicle: water, evaluated on day 25
  T/C: 125 and 150 % of control
T/C endpoint: median survival time, dose: 1.0 mg/kg/injection, schedule: Q01DX009 (ip), vehicle: water, evaluated on day 33
  T/C: 111 and 200 % of control
T/C endpoint: median survival time, dose: 2.0 mg/kg/injection, schedule: Q01DX009 (ip), vehicle: water, evaluated on day 25
  T/C: 160 and 225 % of control
T/C endpoint: median survival time, dose: 2.0 mg/kg/injection, schedule: Q01DX009 (ip), vehicle: water, evaluated on day 33
  T/C: 177 and 255 % of control
T/C endpoint: median survival time, dose: 4.0 mg/kg/injection, schedule: Q01DX009 (ip), vehicle: water, evaluated on day 25
  T/C: 110 % of control [7 of 8 alive]
T/C endpoint: median survival time, dose: 4.0 mg/kg/injection, schedule: Q01DX009 (ip), vehicle: water, evaluated on day 33
  T/C: 133 % of control
T/C endpoint: median survival time, dose: 4.0 mg/kg/injection, schedule: Q01DX009 (ip), vehicle: water
  survivor count: 3 of 8 and 6 of 10
[1]
  T/C: 105 % of control
  survivor count: 0 of 10, 0 of 8, 10 of 10
T/C endpoint: median survival time, dose: 16.0 mg/kg/injection, schedule: Q01DX009 (ip), vehicle: water
  survivor count: 0 of 10, 0 of 8, 2 of 8

## CN(C)CC1CCC/C(=C\C=C\c2ccccc2)C1=O (stereo not given)
T/C endpoint: mean survival time, dose: 100.0 mg/kg/injection, schedule: Q04DX003 (ip), vehicle: Klucel (hydroxypropylcellulose) (HPC)
  survivor count: 5 of 6
T/C endpoint: mean survival time, dose: 200.0 mg/kg/injection, schedule: Q04DX003 (ip), vehicle: Klucel (hydroxypropylcellulose) (HPC)
  survivor count: 1 of 6
T/C endpoint: mean survival time, dose: 400.0 mg/kg/injection, schedule: Q04DX003 (ip), vehicle: Klucel (hydroxypropylcellulose) (HPC)
  survivor count: 0 of 6

## CC(=O)c1ccc(N)cc1
T/C endpoint: mean survival time, dose: 400.0 mg/kg/injection, schedule: Q01DX009 (ip), vehicle: other
  survivor count: 1 of 3

## Nc1nc(SCc2ccccc2)c2ncn(C3OC(CO)CC3O)c2n1 (stereo not given)
T/C endpoint: mean survival time, dose: 177.0 mg/kg/injection, schedule: Q01DX001 (ip), vehicle: carboxymethylcellulose (CMC)
  T/C: 126 % of control
T/C endpoint: mean survival time, dose: 200.0 mg/kg/injection, schedule: Q01DX001 (ip), vehicle: carboxymethylcellulose (CMC)
  T/C: 125 % of control
T/C endpoint: mean survival time, dose: 200.0 mg/kg/injection, schedule: Q01DX009 (ip), vehicle: other
  T/C: 137 % of control
T/C endpoint: mean survival time, dose: 266.0 mg/kg/injection, schedule: Q01DX001 (ip), vehicle: carboxymethylcellulose (CMC)
  T/C: 136 % of control
T/C endpoint: mean survival time, dose: 400.0 mg/kg/injection, schedule: Q01DX001 (ip), vehicle: carboxymethylcellulose (CMC)
  T/C: 127 % of control

## CC(=O)Oc1ccc([N+](=O)[O-])cc1
T/C endpoint: mean survival time, dose: 100.0 mg/kg/injection, schedule: Q04DX002 (ip), vehicle: Klucel (hydroxypropylcellulose) (HPC)
  T/C: 125 % of control
T/C endpoint: mean survival time, dose: 400.0 mg/kg/injection, schedule: Q04DX002 (ip), vehicle: Klucel (hydroxypropylcellulose) (HPC)
  survivor count: 1 of 3

## c1ccc(Pc2ccccc2)cc1
T/C endpoint: mean survival time, dose: 400.0 mg/kg/injection, schedule: Q01DX009 (ip), vehicle: saline with Tween-80
  survivor count: 0 of 6
